# Primary screen of a compound library

Sequences of proteins named here, by UniProt entry; tags and fusion partners are left off. Residues count along the entry.
UniProt Q4DA54, 1-478: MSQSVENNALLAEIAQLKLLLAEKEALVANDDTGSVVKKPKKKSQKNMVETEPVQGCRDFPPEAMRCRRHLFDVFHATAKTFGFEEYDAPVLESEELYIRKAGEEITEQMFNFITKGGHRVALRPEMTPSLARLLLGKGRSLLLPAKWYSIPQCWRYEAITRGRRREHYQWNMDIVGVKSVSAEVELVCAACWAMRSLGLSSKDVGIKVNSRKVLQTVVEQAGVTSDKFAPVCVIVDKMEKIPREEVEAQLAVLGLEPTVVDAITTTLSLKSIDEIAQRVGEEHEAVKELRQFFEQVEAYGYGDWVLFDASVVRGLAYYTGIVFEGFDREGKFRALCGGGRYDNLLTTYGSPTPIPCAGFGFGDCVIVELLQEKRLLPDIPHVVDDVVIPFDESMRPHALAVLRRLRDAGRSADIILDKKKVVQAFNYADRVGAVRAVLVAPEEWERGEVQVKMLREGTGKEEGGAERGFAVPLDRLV
UniProt A4I591, 1-473: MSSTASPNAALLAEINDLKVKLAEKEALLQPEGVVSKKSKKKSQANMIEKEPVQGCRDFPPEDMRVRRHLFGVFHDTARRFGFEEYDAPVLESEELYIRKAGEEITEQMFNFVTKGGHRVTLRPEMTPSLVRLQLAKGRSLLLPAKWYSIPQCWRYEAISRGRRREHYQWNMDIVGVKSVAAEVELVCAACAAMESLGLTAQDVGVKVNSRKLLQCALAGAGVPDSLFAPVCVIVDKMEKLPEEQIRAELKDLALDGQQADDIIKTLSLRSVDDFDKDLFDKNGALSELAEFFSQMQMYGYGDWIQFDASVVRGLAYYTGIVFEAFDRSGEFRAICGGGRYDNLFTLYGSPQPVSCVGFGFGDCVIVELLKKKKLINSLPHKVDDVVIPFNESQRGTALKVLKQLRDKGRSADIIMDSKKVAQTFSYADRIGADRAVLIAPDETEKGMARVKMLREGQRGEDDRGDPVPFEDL

Measurements from “University of Dundee, Small-Polar-MMV Screening Library” (2021), ChEMBL document CHEMBL3988442.

A: 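Assay of Toxoplasma gondii numbers, read through their beta-galactosidase reporter with a colour substrate. Tested at 10 µM. The record gives no direction; the compounds picked for IC50 retests had high values, so higher reads as fewer parasites. Of about 67,000 compounds tested this way, about 260 (0.38%) reached 50% or more in at least one test.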
B: 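Enzyme assay of histidyl-tRNA synthetase; the read-out is not stated. Target: Histidine-tRNA ligase, Trypanosoma cruzi CL Brener (UniProt Q4DA54). Concentration: 30 µM. Direction is inferred from retests: higher values go with stronger inhibition. Of about 69,000 compounds tested this way, about 31 (0.045%) reached 50% or more in at least one test.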
C: 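Enzyme assay of histidyl-tRNA synthetase; the read-out is not stated. Target: Histidine-tRNA ligase, Leishmania infantum (UniProt A4I591). Compounds at 30 µM. The record gives no direction; compounds that gave an IC50 in retests scored well above the rest, so higher reads as stronger inhibition. The assay is labelled LdHisRS but filed under L. infantum. Size under these conditions: about 69,000 compounds, about 410 of them at 50% or above in at least one test.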
D: 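Whole-parasite assay of Trypanosoma brucei over 72 hours; the read-out is not stated. Concentration: 30 µM. Higher reads as stronger inhibition (inferred: compounds with an IC50 in retests scored well above the rest). Values scatter widely below zero; nearly all retest evidence comes from the higher of the two concentrations used. Size under these conditions: about 64,000 compounds, about 940 of them at 50% or above in at least one test.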

Results are given as percent effect. The record does not define 0% and 100%; most values in the screen are far below 50% and negative numbers occur (in some assays of this library far below -100). This is an unselected part of the compounds tested. A dash means the value is not listed here; it may have been measured.

SMILES,A,B,C,D
CCC[C@@H]1CN(Cc2c[nH]nc2-c2ccc(OC)cc2)C[C@H]1NC(C)=O,13.6%,1.288%,16.39%,-23.63%
Cc1n[nH]cc1CNCc1ccnc(OCC(F)(F)F)c1,-,0%,23.29%,-
CCN1CCN(C(=O)CCc2c(C)noc2Cl)CC1,-4.206%,0.7576%,10.61%,-47.72%
O=C(O)C(F)(F)F.[H][C@@]12CCN(c3ccc(C)nn3)C[C@]1([H])O[C@H](C(=O)N1CCOCC1)C2,3.712%,-,-,-
CCn1cc(S(=O)(=O)N2CCC(C3CCCCN(C)C3=O)CC2)c(C)n1 (stereo not given),14.36%,-4.857%,6.711%,-11.64%
NC(=O)COc1ccc(CNC(=O)CN2CCc3ccccc32)cc1,-0.2528%,10.84%,23.29%,-25.24%
COc1ccccc1-n1cc(C(=O)NCCn2nc(C)nc2C)cn1,-,0%,10.87%,-50.24%
COC(=O)CN(C(=O)C(C)c1c(F)cccc1F)c1cccc(C)n1 (stereo not given),-1.462%,1.754%,1.786%,-28.04%
[H][C@@]12CN(CC)C[C@]1(C(=O)NCC1CC1)CCCN2c1ncccn1,-22.4%,-,-,-85.35%
c1cncc(OC[C@@H]2CCC[C@@]23CNCCO3)c1,-,1.657%,1.504%,-
CC(Cn1cccn1)C(=O)N1CCC(NS(C)(=O)=O)CC1 (stereo not given),-11.75%,4.865%,13.68%,-20.98%
[H][C@]12CC[C@]([H])(CN(c3cnccn3)C1)N(C(=O)c1cccnc1SC)C2,8.223%,-,-,41.5%
CNC(=O)C1(c2cnccn2)CCCN1C(=O)c1cccc(F)c1 (stereo not given),22.77%,-2.128%,19.79%,-25.06%
O=C(O)C(F)(F)F.O=C(O)C(F)(F)F.[H][C@]12C[C@@H](CN3CCCC3)N(C)[C@@]1([H])CCN(C(=O)c1cc(C)oc1C)C2,-39.83%,-,-,-13.25%
CC(C)CN1CCCC(c2nc(O)c3cc(F)ccc3n2)C1 (stereo not given),-6.738%,2.959%,-9.655%,-
CC(NC(=O)NCc1cc[nH]n1)c1ccc2c(c1)CCC(=O)N2 (stereo not given),4.129%,-0.7634%,19.18%,27.14%
O=S(=O)(NC[C@H]1C[C@@H]2CCN1C[C@@H]2CN1CCCC1)c1ccc(Cl)cc1,-,20.79%,33.33%,-
CCc1nc2n(n1)CC(NCC1=Cc3ccc(OC)cc3OC1)CC2 (stereo not given),19.33%,6.087%,5%,-35.92%
Cc1ccc2[nH]c(CN(C)c3cc(CN)nc(C)n3)nc2c1,-1.963%,18.92%,41.1%,-12.6%
CCCn1ccc2ccc(NC(=O)N(C)CCOC)cc21,0.7541%,13.04%,22.86%,-6.51%
Cc1ccc(C2CCCN2Cc2nc(-c3ccco3)no2)cc1 (stereo not given),-0.1092%,12.5%,18.28%,-11.93%
CN1C(=O)C2(CCNCC2)c2cc(F)ccc21,-,1.031%,8%,-
CC(Cn1cccn1)NCc1ccc(Cl)s1 (stereo not given),-2.01%,5.263%,20%,-12.94%
CN(C)CC1(O)CCN(C(=O)Cc2ccc(Cl)c(Cl)c2)C1 (stereo not given),2.372%,1.117%,10.42%,-2.195%
Cc1cc(NC(=O)CNCc2csc(-c3cnccn3)n2)ccc1Cl,5.688%,5.028%,18.42%,16.39%
Cc1nccn1CCCNc1nccnc1C#N,-9.94%,-2.439%,6.024%,-13.59%
CCS(=O)(=O)N1C[C@@H]2COC[C@@H](Cc3nc(C)no3)[C@@H]2C1,-,3.743%,16.24%,-
Fc1ccc(COCC2CCN(Cc3ccccn3)CC2)cc1,-,1.587%,9.333%,-
CCc1nccn1C1CCCN(C(=O)c2cccc3c2OCO3)C1 (stereo not given),-11.64%,3.152%,14.04%,13.31%
CS(=O)(=O)N1CCOC2(CCCN(c3ncc(F)cn3)C2)C1 (stereo not given),1.674%,8.046%,14%,-28.72%
COc1ccc(C2SCC(=O)Nc3ccsc32)cc1 (stereo not given),-2.989%,-2.732%,9.709%,-29.09%
NC(=O)c1cc(-n2cc(-c3cccc(C(=O)O)c3)cn2)cs1,-6.5%,8.38%,10.53%,0.8817%
O=C(NCC1CC(=O)N(CCc2ccccc2)C1)c1ccon1 (stereo not given),-13.42%,2.041%,-2.778%,-25.98%
O=C(Nc1cccc(CNCc2cccnc2)c1)C1CCCC1,21.95%,6.122%,22.02%,-
O=C(O)c1nnn(-c2ccc(Cl)c(C(F)(F)F)c2)c1-c1ccncc1,9.787%,3.659%,10.53%,-50.05%
CC(C(=O)Nc1ccc(Cl)cn1)n1ccc(C(F)(F)F)n1 (stereo not given),-21.08%,1.242%,22.5%,-1.233%
Cc1noc(-c2ccnc(N3CCC(N4CCCC4)CC3)c2)n1,3.885%,13.4%,25.71%,-23.3%
COc1c(CNC(c2ccccc2F)c2nccn2C)c(C)nn1C (stereo not given),-6.191%,5.325%,19.64%,8.669%
CN1CCN(C(=O)[C@H]2C[C@@H]3CN(c4ncc(F)cn4)C[C@@H]3N2C)CC1,-,7.097%,11.11%,-
CC(C)Cc1n[nH]c(C2CC(=O)N(CC(C)C)C2)n1 (stereo not given),6.233%,5.587%,2.083%,-3.801%
O=C1[C@H]2CN(Cc3ccco3)C[C@H]2CN1c1ccsc1,-,10.92%,17.43%,-
CNC(=O)[C@@H]1CC[C@@H]2[C@@H](CCN2C(=O)N(C)C)O1,-,2.532%,0%,-
Cc1cc(CNCC2Cn3nnc(C)c3CO2)oc1C (stereo not given),-,4.301%,10.53%,-
COCCN(Cc1ccncc1)C(=O)C1COc2c(cccc2OC)C1 (stereo not given),3.749%,11.76%,24.6%,-57.37%
CC(=O)Nc1nc(C(=O)Nc2ccc(F)cc2)cs1,-1.122%,-0.3774%,13.33%,-28.85%
CN(Cc1ccccn1)C1CC2(CCN(Cc3ccccn3)CC2)C1.O=C(O)C(F)(F)F.O=C(O)C(F)(F)F,-27.27%,-,-,-487.7%
Cc1cc(CN2CCN(C(=O)NCc3ccc(C)s3)CC2)no1,-,3.759%,-14.61%,-39.9%
CN(Cc1ccncc1)C1COC2(CCN(Cc3cccs3)CC2)C1.O=C(O)C(F)(F)F.O=C(O)C(F)(F)F.O=C(O)C(F)(F)F (stereo not given),-0.7664%,-,-,-3.429%
CC(C)n1nc2c(cc1=O)CN(Cc1nc3ccccc3o1)CC2,-1.77%,4.046%,25.44%,-2.984%
Cc1n[nH]c(C2CN(CC(=O)NCc3sccc3C)CCO2)n1 (stereo not given),17.17%,5.521%,24.69%,-24.78%
CCn1cc(Br)c(C(=O)NCc2ccccc2)n1,5.964%,3.509%,5.31%,-
COCCN(CCOC)C(=O)c1cccc(Cn2nc(C)cc2C)c1,-2.839%,2.439%,5.085%,-20.45%
COCC(=O)NCC1CCN(Cc2ccsc2)CC1,12.24%,9.548%,22.47%,-2.429%
Cc1ccc(S(=O)(=O)N2CC(C)Oc3ncccc32)c(C)c1 (stereo not given),4.489%,1.478%,1.299%,-23.61%
CC1c2ncc(COCC3CC3)n2CCN1C(=O)c1ccnn1C (stereo not given),0.7729%,5.785%,16.36%,45.43%
CCOc1ccccc1N1CCN(C(=O)c2cc[nH]n2)CC1,-26.83%,7.602%,14.55%,-8.982%
N#Cc1cccc(CNC(=O)C2=NN(c3ccccc3)C(=O)CN2)c1,19.77%,1.163%,16.39%,31.8%
O=S(=O)(C1CC1)N1CCC2(CC1)CC(Oc1cccnc1)CO2 (stereo not given),-,-1.639%,15.69%,-
CN1CCCc2cc(CNC(=O)c3cc[n+]([O-])cc3)ccc21,-31.7%,6.017%,15.79%,2.114%
Fc1cnc(N2CC[C@@H]3CN(Cc4ccncc4)CCO[C@@H]3C2)nc1,-,4.598%,21.05%,-
CC(=O)N1CCC(n2nccc2-c2cnc(N(C)CCO)nc2)CC1,0.6653%,9.04%,17.14%,2.378%
CC(O)CCn1ccc2[nH]c(=O)c(C#N)cc2c1=O (stereo not given),-2.363%,-3.665%,7.527%,-39.65%
CC(C)COC1CC2(CCN(Cc3nccn3C)CC2)C1,-,6.557%,8.772%,-
Cc1cc(C)n(CC(C)NC(=O)NCc2c(C)cc(C)[nH]c2=O)n1 (stereo not given),-3.636%,0%,17.12%,-4.291%
Cc1c(C(=O)N2CCN(C)[C@@H]3CS(=O)(=O)C[C@@H]32)[nH]c2ccc(F)cc12,-,5.464%,13.7%,-